Data as given in PubChem BioAssay AID1259254 (NCATS, 2017)

Aim: 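Finding genes that stop cells copying their DNA twice in one cycle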 (primary screen)
Cell system: human HCT116 colorectal cancer cells
Reagent: single siRNA against human genes
Duration: 3 days
Detection: 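Imaged Hoechst DNA stain sorts each cell into a cycle phase by DNA amount; per plate, G2 fraction set to 0% for non-targeting and 100% for GMNN siRNA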
Reading the numbers: G2 robust z-score: higher = more G2 cells, more excess DNA replication
Active means: 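An siRNA counts as active if its G2 robust z-score lies at least 5 MADs above the screen median; here such calls match roughly 38% of GMNN control or more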
Shown is an unselected part of about 59,000 deposited reagents. Over the whole deposit, about 1,550 (2.6%) were called active. 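G2 share is only a proxy for re-replication; each gene was hit by three separate siRNAs, and active genes were retested.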 A number with no mark means an inactive call. Reagents against one gene are numbered here. Further read-outs or replicates are left out here. Not given: the amount of reagent.

target gene | reagent no. | G2 robust z-score
BCKDHA | 1 | 0.91
BCKDHA | 2 | 8.08 (active)
BCKDHA | 3 | -0.0653
ZDHHC1 | 1 | -0.378
ZDHHC1 | 2 | 0.138
ZDHHC1 | 3 | 2.24
WT1 | 1 | -0.46
WT1 | 2 | -1.3
WT1 | 3 | -0.5
MED28 | 1 | 0.132
MED28 | 2 | 0.591
MED28 | 3 | -0.12
LGALS4 | 1 | -0.401
LGALS4 | 2 | 0.878
LGALS4 | 3 | 1.69
FCAMR | 1 | 1.05
FCAMR | 2 | 4.39
FCAMR | 3 | -0.291
SLC6A9 | 1 | 0.219
SLC6A9 | 2 | -0.887
SLC6A9 | 3 | -0.887
APOA4 | 1 | -0.508
APOA4 | 2 | -0.597
APOA4 | 3 | 3.33
MVP | 1 | 4.17
MVP | 2 | -0.126
MVP | 3 | -1.15
RBX1 | 1 | 5.24 (active)
RBX1 | 2 | 2.65
RBX1 | 3 | 8.33 (active)

Hits, of those listed so far:
target gene | reagent no. | G2 robust z-score
BCKDHA | 2 | 8.08 (active)
RBX1 | 1 | 5.24 (active)
RBX1 | 3 | 8.33 (active)

More records follow.
target gene | reagent no. | G2 robust z-score
MROH9 | 1 | 0.754
MROH9 | 2 | 0.675
MROH9 | 3 | -1.33
MAGEB6 | 1 | 0.0657
MAGEB6 | 2 | -0.286
MAGEB6 | 3 | 0.789
OR1J2 | 1 | -0.441
OR1J2 | 2 | -0.839
OR1J2 | 3 | -0.815
TSLP | 1 | -0.00204
TSLP | 2 | 0.666
TSLP | 3 | 0.118
MRPL52 | 1 | -0.0809
MRPL52 | 2 | 1.66
MRPL52 | 3 | 0.862
NAPG | 1 | 0.118
NAPG | 2 | 0.277
NAPG | 3 | 0.439
JMJD8 | 1 | -0.413
JMJD8 | 2 | 0.922
JMJD8 | 3 | -1.16
DAZL | 1 | -0.376
DAZL | 2 | 3.72
DAZL | 3 | 2.46
CIDEC | 1 | -0.64
CIDEC | 2 | -0.782
CIDEC | 3 | -1.12
ASAP3 | 1 | 3.28
ASAP3 | 2 | -0.185
ASAP3 | 3 | -0.524
CAPSL | 1 | -1.17
CAPSL | 2 | -0.129
CAPSL | 3 | -0.0439
TEKT5 | 1 | 0.906
TEKT5 | 2 | -0.728
TEKT5 | 3 | -0.796
PRSS23 | 1 | -1.71
PRSS23 | 2 | 1.24
PRSS23 | 3 | -1.14
GNS | 1 | -0.372
GNS | 2 | -0.756
GNS | 3 | -0.587
SMARCD1 | 1 | 3.1
SMARCD1 | 2 | 0.343
SMARCD1 | 3 | 3.12
DENND4C | 1 | -0.352
DENND4C | 2 | -0.492
DENND4C | 3 | 6.78 (active)
C19orf67 | 1 | 1.73
C19orf67 | 2 | 1.49
C19orf67 | 3 | -0.506
CNOT6L | 1 | -0.84
CNOT6L | 2 | -0.0996
CNOT6L | 3 | 1.99
CCL18 | 1 | 0.995
CCL18 | 2 | 2.2
CCL18 | 3 | -0.155
